Assay results as given in US20030186289A1, “Model cell systems for screening of anti-hypertrophic therapeutics” (Myogen, Inc., priority 2002, published 2003).
At least one structure is not confirmed: it was looked up by name or label, or the drawing left a doubt.

Legend:
Format in all cases: cell-based, rat
MEF-2 reporter = assay: 3×MEF2 promoter-luciferase reporter in H9C2 cells; conditions: drug added at transfection or expression construct, 48 h
Source text: Plasmid constructs used. Gal4 DNA-binding domain constructs were generated by cloning cDNAs encoding constitutively active murine calcineurin (residues 1-398) and full length human MEF-2 into the pBIND expression vector (Promega, Inc.). VP16 fusion constructs were created by cloning full length human MCIP1 and HDAC5 cDNAs into the pACT expression vector (Promega, Inc.). In assays, Gal4 and VP16 fusion constructs were cotransfected with pG5-luc reporter (Promega), a firefly luciferase gene under control of a multimerized Gal4 promoter sequence. Promoter reporter constructs were generated by cloning the promoter regions of ANF, α-skeletal actin, IL-2 (with multiple NFAT binding sites) and myoglobin genes upstream of a promoter-less firefly luciferase open reading frame (pGL3 plasmid, Promega, Inc.). Similarly, three consensus MEF-2 binding sites or a single TATA element were cloned into pGL3. HDAC5-GFP construct was a gift from E. Olson, UT Southwestern Medical Center, Dallas Tex. […]
Adenoviral constructs. […] Forty-eight hrs after infection, the cells were lysed and luciferase levels were measured as above.
(§1) Luciferase measurement. […] Briefly, cells were washed in serum- and phenol red-free medium, then lysed in the presence of luciferase substrate to produce a long half-life “glow” luminescence. Relative light intensity was quantitated on a Fusion Universal Microplate Analyzer (Packard).

[1] = system: alpha skeletal actin promoter; assay: alpha skeletal actin promoter-luciferase reporter in H9C2 cells; conditions: drug added at transfection or expression construct, 48 h
[2] = system: hypertrophic promoter activity (ANF, NFAT, MEF2, aSkAct, Myb); assay: hypertrophic promoter-luciferase constructs in H9C2 cells, agonist dose-response survey; conditions: dose-response survey of agonists
Method: FIG. 5—H9C2 promoter activity is unresponsive to the adrenergic agonists isoproterenol, norepinephrine and forskolin. H9 cells were transfected with promoter-luciferase contructs as shown and as described in materials and methods. Transfected cells were treated with hypertrophic agonists as shown. Luciferase units were measured and plotted as fraction of untreated control vs concentration of agonist used. Symbols ANF, NFAT, MEF2, aSkAct, and Myb are used as in FIG. 3.
Plasmid constructs used. Gal4 DNA-binding domain constructs were generated by cloning cDNAs encoding constitutively active murine calcineurin (residues 1-398) and full length human MEF-2 into the pBIND expression vector (Promega, Inc.). VP16 fusion constructs were created by cloning full length human MCIP1 and HDAC5 cDNAs into the pACT expression vector (Promega, Inc.). […] Promoter reporter constructs were generated by cloning the promoter regions of ANF, α-skeletal actin, IL-2 (with multiple NFAT binding sites) and myoglobin genes upstream of a promoter-less firefly luciferase open reading frame (pGL3 plasmid, Promega, Inc.). […]
as §1

| Structure (SMILES) | expression of MEF-2 reporter (MEF-2 reporter) | expression of alpha skeletal actin reporter [1] | hypertrophic promoter activity [2] |
| --- | --- | --- | --- |
| C=CC[C@@H]1/C=C(\C)C[C@H](C)C[C@H](OC)[C@H]2O[C@@](O)(C(=O)C(=O)N3CCCC[C@H]3C(=O)O[C@H](/C(C)=C/[C@@H]3CC[C@@H](O)[C@H](OC)C3)[C@H](C)[C@@H](O)CC1=O)[C@H](C)C[C@@H]2OC [FK506] | significantly reduced | significantly reduced | – |
| C=C[C@@]1(C)CC(=O)[C@]2(O)[C@@]3(C)[C@@H](O)CCC(C)(C)[C@@H]3[C@H](O)[C@H](OC(C)=O)[C@@]2(C)O1 [forskolin] | – | – | relatively unaffected |
